The other results are listed elsewhere or left out.
Legend:
Test in all cases: log2 fold change, soluble protein after heating vs DMSO (PISA); higher = thermal stabilisation; K562 lysate, 10 uM; active = over 0.2 and 3.5 SD of the protein, either way, in both replicates (recomputed)
[1] = compound: NCC(=O)Nc1ccc(-n2nc(C(F)(F)F)cc2-c2ccc3c(ccc4ccccc43)c2)cc1
Summary of the method: (§1)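 Soluble protein was defined as the supernatant remaining after 21,000xg for 90 min, following pooling of heated aliquots and adjustment to 0.5% NP-40 at 4°C. Before that, crude K562 extract at 1 mg/mL protein in PBS pH 7.4 with 1 mM MgCl2 was treated with 10 μM compound for 30 min and heated for 3 min across 48°C-58°C. Quantification used TMTpro 16plex LC-MS/MS with channel sums equalised, and values are log-two fold changes in thermal stability relative to solvent controls from duplicates.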

The chains behind the UniProt entries cited, without tags or fusion partners. Where a name states a change or a piece, a line headed by the entry shows the natural chain unless it says otherwise.
UniProt Q8NB90: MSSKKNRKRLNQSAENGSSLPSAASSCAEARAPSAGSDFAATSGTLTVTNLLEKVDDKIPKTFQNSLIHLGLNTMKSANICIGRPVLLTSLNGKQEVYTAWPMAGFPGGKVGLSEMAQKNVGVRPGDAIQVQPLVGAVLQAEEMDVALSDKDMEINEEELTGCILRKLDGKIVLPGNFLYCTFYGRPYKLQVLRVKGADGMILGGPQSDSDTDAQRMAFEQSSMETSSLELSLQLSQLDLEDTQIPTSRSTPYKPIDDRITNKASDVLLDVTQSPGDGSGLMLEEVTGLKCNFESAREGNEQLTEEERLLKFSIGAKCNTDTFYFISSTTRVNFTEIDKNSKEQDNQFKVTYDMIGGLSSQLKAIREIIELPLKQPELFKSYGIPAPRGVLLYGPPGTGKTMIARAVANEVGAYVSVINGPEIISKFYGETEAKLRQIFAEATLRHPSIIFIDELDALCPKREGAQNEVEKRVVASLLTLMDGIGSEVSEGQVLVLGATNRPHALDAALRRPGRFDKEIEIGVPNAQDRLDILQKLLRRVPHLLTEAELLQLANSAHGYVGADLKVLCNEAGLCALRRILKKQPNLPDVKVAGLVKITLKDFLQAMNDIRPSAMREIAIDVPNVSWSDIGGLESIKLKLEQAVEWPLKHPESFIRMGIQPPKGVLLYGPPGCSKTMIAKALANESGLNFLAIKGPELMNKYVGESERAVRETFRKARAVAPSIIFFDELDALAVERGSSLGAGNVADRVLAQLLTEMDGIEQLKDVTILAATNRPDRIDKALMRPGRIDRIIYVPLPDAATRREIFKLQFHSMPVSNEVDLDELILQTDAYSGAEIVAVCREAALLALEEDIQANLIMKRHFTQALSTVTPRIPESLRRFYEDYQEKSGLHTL
UniProt P19623: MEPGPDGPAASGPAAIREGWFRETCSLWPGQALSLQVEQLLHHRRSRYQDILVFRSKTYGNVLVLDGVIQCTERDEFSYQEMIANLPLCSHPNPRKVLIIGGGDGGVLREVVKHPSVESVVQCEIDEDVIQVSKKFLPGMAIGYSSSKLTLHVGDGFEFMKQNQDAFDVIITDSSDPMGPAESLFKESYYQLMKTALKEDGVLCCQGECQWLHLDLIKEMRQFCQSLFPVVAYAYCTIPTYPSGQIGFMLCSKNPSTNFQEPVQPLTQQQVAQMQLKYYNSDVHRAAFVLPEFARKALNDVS
UniProt Q9GZT4: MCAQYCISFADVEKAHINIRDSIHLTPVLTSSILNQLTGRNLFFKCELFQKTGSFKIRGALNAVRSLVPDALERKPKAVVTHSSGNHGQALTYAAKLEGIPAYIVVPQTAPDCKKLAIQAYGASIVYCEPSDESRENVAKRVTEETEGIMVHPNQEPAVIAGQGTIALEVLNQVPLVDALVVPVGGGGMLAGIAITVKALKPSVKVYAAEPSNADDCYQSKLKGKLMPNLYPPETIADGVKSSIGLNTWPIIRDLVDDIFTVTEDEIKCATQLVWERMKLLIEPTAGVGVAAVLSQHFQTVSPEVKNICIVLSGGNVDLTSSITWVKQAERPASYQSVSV
UniProt Q07955, whole entry, looked up: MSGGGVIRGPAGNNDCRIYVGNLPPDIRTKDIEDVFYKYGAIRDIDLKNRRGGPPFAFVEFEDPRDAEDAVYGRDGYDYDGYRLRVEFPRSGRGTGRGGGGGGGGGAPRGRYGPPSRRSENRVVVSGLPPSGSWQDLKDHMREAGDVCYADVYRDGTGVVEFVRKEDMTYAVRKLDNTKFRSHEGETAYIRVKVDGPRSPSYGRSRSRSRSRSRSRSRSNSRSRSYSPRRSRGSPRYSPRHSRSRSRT
UniProt Q9UBP0: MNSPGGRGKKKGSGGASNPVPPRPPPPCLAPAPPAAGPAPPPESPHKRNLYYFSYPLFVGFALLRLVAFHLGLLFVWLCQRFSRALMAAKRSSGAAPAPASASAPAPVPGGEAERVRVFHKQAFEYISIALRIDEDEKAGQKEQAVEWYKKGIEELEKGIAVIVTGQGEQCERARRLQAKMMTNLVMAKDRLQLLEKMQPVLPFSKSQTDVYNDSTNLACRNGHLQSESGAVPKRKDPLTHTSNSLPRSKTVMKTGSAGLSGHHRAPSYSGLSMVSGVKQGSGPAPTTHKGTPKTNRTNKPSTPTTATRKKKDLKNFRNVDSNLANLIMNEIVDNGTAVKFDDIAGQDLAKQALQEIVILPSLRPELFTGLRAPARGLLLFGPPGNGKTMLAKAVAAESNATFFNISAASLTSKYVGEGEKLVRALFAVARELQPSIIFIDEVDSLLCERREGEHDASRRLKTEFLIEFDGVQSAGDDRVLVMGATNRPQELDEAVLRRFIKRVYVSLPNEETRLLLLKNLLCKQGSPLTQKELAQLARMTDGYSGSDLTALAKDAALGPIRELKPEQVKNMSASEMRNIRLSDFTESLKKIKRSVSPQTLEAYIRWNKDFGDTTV
UniProt Q8TCT7: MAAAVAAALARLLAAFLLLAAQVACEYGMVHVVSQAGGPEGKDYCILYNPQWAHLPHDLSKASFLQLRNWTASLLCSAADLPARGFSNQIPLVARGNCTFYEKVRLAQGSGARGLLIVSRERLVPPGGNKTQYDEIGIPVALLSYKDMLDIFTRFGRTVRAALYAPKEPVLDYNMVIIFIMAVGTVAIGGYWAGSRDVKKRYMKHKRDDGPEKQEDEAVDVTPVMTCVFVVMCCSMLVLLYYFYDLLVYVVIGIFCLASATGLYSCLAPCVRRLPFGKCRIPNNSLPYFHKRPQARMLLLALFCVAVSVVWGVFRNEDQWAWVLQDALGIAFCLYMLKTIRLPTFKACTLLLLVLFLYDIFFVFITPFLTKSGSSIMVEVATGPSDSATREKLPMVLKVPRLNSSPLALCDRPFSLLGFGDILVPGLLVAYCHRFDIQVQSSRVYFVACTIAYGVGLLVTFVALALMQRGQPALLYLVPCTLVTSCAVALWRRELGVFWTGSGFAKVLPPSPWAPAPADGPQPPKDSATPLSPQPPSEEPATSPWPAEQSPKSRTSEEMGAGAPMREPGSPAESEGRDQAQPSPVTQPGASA
UniProt Q13242, whole entry, looked up: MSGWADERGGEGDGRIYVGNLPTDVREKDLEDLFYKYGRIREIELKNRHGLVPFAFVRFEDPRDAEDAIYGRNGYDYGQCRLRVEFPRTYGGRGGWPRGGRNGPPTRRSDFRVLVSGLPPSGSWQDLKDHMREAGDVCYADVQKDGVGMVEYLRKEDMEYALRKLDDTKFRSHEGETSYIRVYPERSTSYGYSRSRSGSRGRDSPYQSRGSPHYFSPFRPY
UniProt O95630, whole entry, looked up: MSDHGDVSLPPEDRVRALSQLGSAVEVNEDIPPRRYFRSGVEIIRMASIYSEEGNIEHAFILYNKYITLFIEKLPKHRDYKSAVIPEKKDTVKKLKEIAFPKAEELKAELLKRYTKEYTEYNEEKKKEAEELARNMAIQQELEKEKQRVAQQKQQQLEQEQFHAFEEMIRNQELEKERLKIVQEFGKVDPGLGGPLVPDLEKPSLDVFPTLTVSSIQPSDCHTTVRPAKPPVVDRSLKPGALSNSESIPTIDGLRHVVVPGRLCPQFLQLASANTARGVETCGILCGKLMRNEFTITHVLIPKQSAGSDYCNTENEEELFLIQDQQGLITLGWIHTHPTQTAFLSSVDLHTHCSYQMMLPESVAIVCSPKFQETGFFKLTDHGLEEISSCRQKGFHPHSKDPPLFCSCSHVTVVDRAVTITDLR
UniProt Q9NRC1: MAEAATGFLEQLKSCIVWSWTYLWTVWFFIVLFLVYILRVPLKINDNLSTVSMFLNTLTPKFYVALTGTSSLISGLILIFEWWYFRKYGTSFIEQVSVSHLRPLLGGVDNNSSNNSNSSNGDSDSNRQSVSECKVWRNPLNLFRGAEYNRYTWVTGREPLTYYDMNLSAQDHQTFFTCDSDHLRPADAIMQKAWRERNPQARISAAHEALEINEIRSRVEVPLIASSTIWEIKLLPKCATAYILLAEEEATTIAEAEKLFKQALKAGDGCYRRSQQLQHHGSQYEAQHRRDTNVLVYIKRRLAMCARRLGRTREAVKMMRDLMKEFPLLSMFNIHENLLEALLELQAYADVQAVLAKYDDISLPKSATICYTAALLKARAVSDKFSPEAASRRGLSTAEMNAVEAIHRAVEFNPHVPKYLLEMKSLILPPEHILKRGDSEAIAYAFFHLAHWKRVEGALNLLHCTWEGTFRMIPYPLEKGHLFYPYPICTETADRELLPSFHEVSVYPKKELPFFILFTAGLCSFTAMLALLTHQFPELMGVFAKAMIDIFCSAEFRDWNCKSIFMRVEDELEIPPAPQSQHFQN
UniProt P11277, whole entry, looked up: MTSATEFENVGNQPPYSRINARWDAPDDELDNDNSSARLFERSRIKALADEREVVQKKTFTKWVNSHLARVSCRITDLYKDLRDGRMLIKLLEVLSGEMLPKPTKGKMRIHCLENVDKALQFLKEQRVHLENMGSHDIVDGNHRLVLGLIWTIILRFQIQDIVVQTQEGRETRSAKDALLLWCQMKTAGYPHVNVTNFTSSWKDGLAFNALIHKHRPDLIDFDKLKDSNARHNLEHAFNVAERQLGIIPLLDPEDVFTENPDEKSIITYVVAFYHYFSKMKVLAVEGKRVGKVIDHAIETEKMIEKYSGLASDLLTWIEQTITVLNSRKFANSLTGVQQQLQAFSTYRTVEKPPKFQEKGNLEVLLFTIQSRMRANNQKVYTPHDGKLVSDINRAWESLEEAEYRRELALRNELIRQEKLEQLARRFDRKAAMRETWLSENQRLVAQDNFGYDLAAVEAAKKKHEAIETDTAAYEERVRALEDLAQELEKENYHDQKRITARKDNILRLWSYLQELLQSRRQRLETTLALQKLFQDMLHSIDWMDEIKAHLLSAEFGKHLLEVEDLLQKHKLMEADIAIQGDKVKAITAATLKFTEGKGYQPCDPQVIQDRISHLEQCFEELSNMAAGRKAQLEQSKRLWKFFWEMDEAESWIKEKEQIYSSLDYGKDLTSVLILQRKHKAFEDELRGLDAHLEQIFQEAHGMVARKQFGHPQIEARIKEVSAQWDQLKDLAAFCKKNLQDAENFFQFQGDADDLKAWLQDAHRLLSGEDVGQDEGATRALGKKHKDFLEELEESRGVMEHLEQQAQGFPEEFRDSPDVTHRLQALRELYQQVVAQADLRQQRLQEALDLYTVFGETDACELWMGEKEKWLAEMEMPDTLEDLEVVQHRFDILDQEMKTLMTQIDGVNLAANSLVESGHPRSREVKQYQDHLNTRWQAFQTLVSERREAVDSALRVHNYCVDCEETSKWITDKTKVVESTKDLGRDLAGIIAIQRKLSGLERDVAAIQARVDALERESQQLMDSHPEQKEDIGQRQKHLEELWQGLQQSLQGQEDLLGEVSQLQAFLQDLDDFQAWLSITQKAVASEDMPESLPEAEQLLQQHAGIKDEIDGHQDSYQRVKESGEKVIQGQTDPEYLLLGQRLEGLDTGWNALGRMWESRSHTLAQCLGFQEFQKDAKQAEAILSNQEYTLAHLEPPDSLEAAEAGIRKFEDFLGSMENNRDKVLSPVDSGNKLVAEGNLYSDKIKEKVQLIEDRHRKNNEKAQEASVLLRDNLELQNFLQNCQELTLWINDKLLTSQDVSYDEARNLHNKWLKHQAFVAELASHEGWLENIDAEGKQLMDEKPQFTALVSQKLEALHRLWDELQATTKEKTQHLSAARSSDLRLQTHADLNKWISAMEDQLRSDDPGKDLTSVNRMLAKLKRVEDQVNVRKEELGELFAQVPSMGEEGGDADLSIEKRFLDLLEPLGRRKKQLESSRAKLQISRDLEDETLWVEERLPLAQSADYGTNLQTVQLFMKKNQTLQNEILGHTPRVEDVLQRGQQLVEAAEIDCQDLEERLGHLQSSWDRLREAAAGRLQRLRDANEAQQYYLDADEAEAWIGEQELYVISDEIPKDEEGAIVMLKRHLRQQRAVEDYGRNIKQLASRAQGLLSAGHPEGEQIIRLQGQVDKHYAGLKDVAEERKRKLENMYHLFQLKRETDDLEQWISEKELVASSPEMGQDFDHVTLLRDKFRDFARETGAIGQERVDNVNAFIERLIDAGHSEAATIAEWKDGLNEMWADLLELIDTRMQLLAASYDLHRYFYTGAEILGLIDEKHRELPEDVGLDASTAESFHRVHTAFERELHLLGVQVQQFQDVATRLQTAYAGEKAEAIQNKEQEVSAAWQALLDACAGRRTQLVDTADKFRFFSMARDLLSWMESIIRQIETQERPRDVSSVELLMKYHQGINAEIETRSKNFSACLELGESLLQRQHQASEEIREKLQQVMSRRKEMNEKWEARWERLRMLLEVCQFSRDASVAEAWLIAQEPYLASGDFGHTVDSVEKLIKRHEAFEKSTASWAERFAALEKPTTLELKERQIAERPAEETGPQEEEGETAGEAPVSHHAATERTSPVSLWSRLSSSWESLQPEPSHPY
UniProt P84103: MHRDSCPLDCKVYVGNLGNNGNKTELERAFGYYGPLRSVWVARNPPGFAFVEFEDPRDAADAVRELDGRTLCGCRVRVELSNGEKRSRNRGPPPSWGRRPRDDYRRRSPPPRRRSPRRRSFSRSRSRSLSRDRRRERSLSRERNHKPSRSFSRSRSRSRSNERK

vorinostat = compound: O=C(CCCCCCC(=O)Nc1ccccc1)NO [vorinostat]
Summary of the method: as §1

silmitasertib = compound: O=C(O)c1ccc2c(c1)nc(Nc1cccc(Cl)c1)c1ccncc12 [silmitasertib]
Summary of the method: as §1

[2] = compound: O=C1NC(=O)C(c2cnc3ccccn23)=C1c1cn2c3c(cc(F)cc13)CN(C(=O)N1CCCCC1)CC2
Summary of the method: as §1

entospletinib = compound: c1cn2cc(-c3ccc4cn[nH]c4c3)nc(Nc3ccc(N4CCOCC4)cc3)c2n1 [entospletinib]
Summary of the method: as §1

Q: For SPEN (UniProt Q96T58), which log2 fold change [1] is on record?
A: Its log2 fold change is inactive: 0.078.

Q: And the log2 fold change (vorinostat)?
A: The log2 fold change was inactive: -0.153.

Q: And the log2 fold change (silmitasertib)?
A: The log2 fold change was inactive: 0.039.

Q: And the log2 fold change [2]?
A: The log2 fold change was inactive: 0.047.

Q: What about the log2 fold change (entospletinib) of the same target?
A: The log2 fold change was inactive: -0.017.

Q: What does the source list for SPATA5 (UniProt Q8NB90)?
A: log2 fold change [1]: inactive: 0.005; log2 fold change (vorinostat): inactive: -0.247; log2 fold change (silmitasertib): inactive: 0.048; log2 fold change [2]: inactive: -0.011; log2 fold change (entospletinib): inactive: 0.013

Q: With ST13 (UniProt P50502) as the target, how does the log2 fold change [1] read?
A: Its log2 fold change is inactive: 0.002.

Q: What about the log2 fold change (vorinostat) of the same target?
A: The log2 fold change was inactive: 0.108.

Q: And the log2 fold change (silmitasertib)?
A: The log2 fold change was inactive: 0.013.

Q: What about the log2 fold change [2] of the same target?
A: The log2 fold change was inactive: -0.015.

Q: And the log2 fold change (entospletinib)?
A: Its log2 fold change is inactive: 0.014.

Q: Which log2 fold change [1] does the source give for SPIRE1 (UniProt Q08AE8) here?
A: The log2 fold change was inactive: 0.092.

Q: What about the log2 fold change (vorinostat) of the same target?
A: The log2 fold change was inactive: 0.15.

Q: And the log2 fold change (silmitasertib)?
A: Its log2 fold change is inactive: -0.02.

Q: And the log2 fold change [2]?
A: The log2 fold change was inactive: -0.129.

Q: What about the log2 fold change (entospletinib) of the same target?
A: The log2 fold change was inactive: 0.076.

Q: Which log2 fold change [1] does the source give for SRM (UniProt P19623) here?
A: The log2 fold change was inactive: 0.009.

Q: What about the log2 fold change (vorinostat) of the same target?
A: The log2 fold change was inactive: -0.029.

Q: What about the log2 fold change (silmitasertib) of the same target?
A: Its log2 fold change is inactive: 0.008.

Q: What about the log2 fold change [2] of the same target?
A: The log2 fold change was inactive: 0.052.

Q: And the log2 fold change (entospletinib)?
A: The log2 fold change was inactive: 0.001.

Q: Which results are given for SRR (UniProt Q9GZT4)?
A: log2 fold change [1]: inactive: -0.044; log2 fold change (vorinostat): inactive: -0.063; log2 fold change (silmitasertib): inactive: 0.012; log2 fold change [2]: inactive: -0.083; log2 fold change (entospletinib): inactive: -0.017

Q: Which log2 fold change [1] does the source give for SSBP4 (UniProt U3KPY3) here?
A: Its log2 fold change is inactive: -0.157.

Q: What does the source list for SRSF1 (UniProt Q07955)?
A: log2 fold change [1]: inactive: 0.041; log2 fold change (vorinostat): inactive: 0.092; log2 fold change (silmitasertib): inactive: -0.02; log2 fold change [2]: inactive: -0.039; log2 fold change (entospletinib): inactive: 0.012

Q: SPART (UniProt Q8N0X7) was tested. Which log2 fold change [1] did it give?
A: Its log2 fold change is inactive: 0.021.

Q: What about the log2 fold change (vorinostat) of the same target?
A: Its log2 fold change is inactive: -0.126.

Q: And the log2 fold change (silmitasertib)?
A: The log2 fold change was inactive: -0.029.

Q: What about the log2 fold change [2] of the same target?
A: Its log2 fold change is inactive: -0.019.

Q: And the log2 fold change (entospletinib)?
A: The log2 fold change was inactive: -0.031.

Q: How did the log2 fold change [1] turn out when SRRM2 (UniProt Q9UQ35) was run?
A: Its log2 fold change is inactive: 0.016.

Q: And the log2 fold change (vorinostat)?
A: Its log2 fold change is inactive: 0.027.

Q: And the log2 fold change (silmitasertib)?
A: Its log2 fold change is inactive: -0.07.

Q: What about the log2 fold change [2] of the same target?
A: Its log2 fold change is inactive: 0.004.

Q: And the log2 fold change (entospletinib)?
A: Its log2 fold change is inactive: -0.017.

Q: Which results are given for SPAST (UniProt Q9UBP0)?
A: log2 fold change [1]: inactive: 0.036; log2 fold change (vorinostat): inactive: -0.267; log2 fold change (silmitasertib): inactive: 0.001; log2 fold change [2]: inactive: -0.04; log2 fold change (entospletinib): inactive: 0.031

Q: Which log2 fold change [1] does the source give for SS18 (UniProt Q15532) here?
A: The log2 fold change was inactive: -0.064.

Q: And the log2 fold change (vorinostat)?
A: The log2 fold change was inactive: 0.026.

Q: What about the log2 fold change (silmitasertib) of the same target?
A: Its log2 fold change is inactive: 0.018.

Q: And the log2 fold change [2]?
A: Its log2 fold change is inactive: 0.093.

Q: And the log2 fold change (entospletinib)?
A: Its log2 fold change is inactive: -0.143.

Q: For STARD9 (UniProt Q9P2P6), which log2 fold change [1] is on record?
A: Its log2 fold change is inactive: 0.155.

Q: What about the log2 fold change (vorinostat) of the same target?
A: Its log2 fold change is inactive: -0.093.

Q: And the log2 fold change (silmitasertib)?
A: The log2 fold change was inactive: -0.004.

Q: And the log2 fold change [2]?
A: The log2 fold change was inactive: -0.056.

Q: What about the log2 fold change (entospletinib) of the same target?
A: Its log2 fold change is inactive: -0.039.

Q: How did the log2 fold change [1] turn out when STARD7 (UniProt Q9NQZ5) was run?
A: Its log2 fold change is inactive: 0.048.

Q: And the log2 fold change (vorinostat)?
A: Its log2 fold change is inactive: 0.116.

Q: What about the log2 fold change (silmitasertib) of the same target?
A: The log2 fold change was inactive: 0.014.

Q: What about the log2 fold change [2] of the same target?
A: The log2 fold change was inactive: 0.041.

Q: What about the log2 fold change (entospletinib) of the same target?
A: The log2 fold change was inactive: 0.012.

Q: Which log2 fold change [1] does the source give for STAT5A (UniProt P42229) here?
A: The log2 fold change was inactive: 0.026.

Q: And the log2 fold change (vorinostat)?
A: Its log2 fold change is inactive: -0.106.

Q: And the log2 fold change (silmitasertib)?
A: The log2 fold change was inactive: 0.013.

Q: What about the log2 fold change [2] of the same target?
A: The log2 fold change was inactive: 0.022.

Q: What about the log2 fold change (entospletinib) of the same target?
A: Its log2 fold change is inactive: 0.025.

Q: SPPL2B (UniProt Q8TCT7) was tested. Which log2 fold change [1] did it give?
A: The log2 fold change was inactive: -0.021.

Q: What about the log2 fold change (vorinostat) of the same target?
A: Its log2 fold change is inactive: 0.023.

Q: And the log2 fold change (silmitasertib)?
A: Its log2 fold change is inactive: 0.015.

Q: And the log2 fold change [2]?
A: Its log2 fold change is inactive: -0.03.

Q: What about the log2 fold change (entospletinib) of the same target?
A: The log2 fold change was inactive: -0.001.

Q: With SRSF9 (UniProt Q13242) as the target, how does the log2 fold change [1] read?
A: Its log2 fold change is inactive: -0.182.

Q: And the log2 fold change (vorinostat)?
A: The log2 fold change was inactive: -0.113.

Q: And the log2 fold change (silmitasertib)?
A: The log2 fold change was inactive: 0.069.

Q: And the log2 fold change [2]?
A: Its log2 fold change is inactive: -0.035.

Q: What about the log2 fold change (entospletinib) of the same target?
A: Its log2 fold change is inactive: 0.007.

Q: For STAM2 (UniProt O75886), which log2 fold change [1] is on record?
A: Its log2 fold change is inactive: 0.001.

Q: And the log2 fold change (vorinostat)?
A: The log2 fold change was inactive: 0.041.

Q: And the log2 fold change (silmitasertib)?
A: Its log2 fold change is inactive: -0.019.

Q: What about the log2 fold change [2] of the same target?
A: Its log2 fold change is inactive: -0.018.

Q: And the log2 fold change (entospletinib)?
A: The log2 fold change was inactive: 0.002.

Q: Which log2 fold change [1] does the source give for STAMBP (UniProt O95630) here?
A: Its log2 fold change is inactive: -0.043.

Q: And the log2 fold change (vorinostat)?
A: Its log2 fold change is inactive: 0.063.

Q: What about the log2 fold change (silmitasertib) of the same target?
A: Its log2 fold change is inactive: -0.002.

Q: What about the log2 fold change [2] of the same target?
A: The log2 fold change was inactive: -0.043.

Q: And the log2 fold change (entospletinib)?
A: The log2 fold change was inactive: 0.012.

Q: SRP54 (UniProt P61011) was tested. Which log2 fold change [1] did it give?
A: Its log2 fold change is inactive: 0.003.

Q: And the log2 fold change (vorinostat)?
A: The log2 fold change was active: -0.241.

Q: What about the log2 fold change (silmitasertib) of the same target?
A: The log2 fold change was inactive: 0.008.

Q: And the log2 fold change [2]?
A: The log2 fold change was inactive: 0.021.

Q: What about the log2 fold change (entospletinib) of the same target?
A: Its log2 fold change is inactive: -0.004.

Q: What does the source list for ST7 (UniProt Q9NRC1)?
A: log2 fold change [1]: inactive: -0.002; log2 fold change (vorinostat): inactive: -0.077; log2 fold change (silmitasertib): inactive: 0.001; log2 fold change [2]: inactive: 0.033; log2 fold change (entospletinib): inactive: 0.071

Q: Which results are given for SRP9 (UniProt P49458)?
A: log2 fold change [1]: inactive: -0.048; log2 fold change (vorinostat): inactive: -0.071; log2 fold change (silmitasertib): inactive: 0.023; log2 fold change [2]: inactive: -0.031; log2 fold change (entospletinib): inactive: -0.044

Q: With SPTB isoform 2 (UniProt P11277) as the target, how does the log2 fold change [1] read?
A: Its log2 fold change is inactive: 0.002.

Q: And the log2 fold change (vorinostat)?
A: Its log2 fold change is inactive: -0.012.

Q: And the log2 fold change (silmitasertib)?
A: The log2 fold change was inactive: 0.031.

Q: And the log2 fold change [2]?
A: Its log2 fold change is inactive: -0.008.

Q: What about the log2 fold change (entospletinib) of the same target?
A: Its log2 fold change is inactive: 0.02.

Q: For SPTLC1 (UniProt O15269), which log2 fold change [1] is on record?
A: The log2 fold change was inactive: -0.042.

Q: And the log2 fold change (vorinostat)?
A: Its log2 fold change is inactive: 0.119.

Q: And the log2 fold change (silmitasertib)?
A: The log2 fold change was inactive: 0.012.

Q: And the log2 fold change [2]?
A: Its log2 fold change is inactive: 0.021.

Q: And the log2 fold change (entospletinib)?
A: The log2 fold change was inactive: 0.02.

Q: What does the source list for SRSF3 (UniProt P84103)?
A: log2 fold change [1]: inactive: -0.053; log2 fold change (vorinostat): inactive: -0.053; log2 fold change (silmitasertib): inactive: 0.003; log2 fold change [2]: inactive: 0.003; log2 fold change (entospletinib): inactive: -0.045
